From the supplement of paper PMC9233669
This sample is rich in variants without activity.

Tests used:
biotinyl-Val-oxazolone = test: self-aminoacylation, catalytic enhancement (BVO) (fold over background); higher = more active; k-Seq, kA / k0A0; sequences stand for … in GGGAAUGGAUCCACAUCUACGAAUUC…UUCACUGCAGACUUGACGAAGCUG
Procedure, shortened: (§1)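 Mutagenized RNA pools with a 21-nt variable region (0.43 μM) reacted with each biotinyl-aminoacyl-oxazolone at 2–1250 μM. Reactions ran in 50 μL HEPES/NaCl/KCl/MgCl2/CaCl2 buffer with 5% acetonitrile, pH 6.9–7.0, for 90 minutes at room temperature. Streptavidin-captured RNA was quantified by triplicate qPCR and Illumina sequencing, and per-sequence fraction reacted was fit to a pseudo-first-order model with 1000 bootstraps. Catalytic enhancement is median kA divided by the uncatalyzed rate, the low-activity peak of a bimodal Gaussian fit.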

biotinyl-Met-oxazolone = test: self-aminoacylation, catalytic enhancement (BMO) (fold over background); higher = more active; k-Seq, kA / k0A0; sequences stand for … in GGGAAUGGAUCCACAUCUACGAAUUC…UUCACUGCAGACUUGACGAAGCUG
Procedure, shortened: as §1

biotinyl-Ile-oxazolone = test: self-aminoacylation, catalytic enhancement (BIO) (fold over background); higher = more active; k-Seq, kA / k0A0; sequences stand for … in GGGAAUGGAUCCACAUCUACGAAUUC…UUCACUGCAGACUUGACGAAGCUG
Procedure, shortened: as §1

biotinyl-Trp-oxazolone = test: self-aminoacylation, catalytic enhancement (BWO) (fold over background); higher = more active; k-Seq, kA / k0A0; sequences stand for … in GGGAAUGGAUCCACAUCUACGAAUUC…UUCACUGCAGACUUGACGAAGCUG
Procedure, shortened: as §1

biotinyl-Leu-oxazolone = test: self-aminoacylation, catalytic enhancement (BLO) (fold over background); higher = more active; k-Seq, kA / k0A0; sequences stand for … in GGGAAUGGAUCCACAUCUACGAAUUC…UUCACUGCAGACUUGACGAAGCUG
Procedure, shortened: as §1

biotinyl-Phe-oxazolone = test: self-aminoacylation, catalytic enhancement (BFO) (fold over background); higher = more active; k-Seq, kA / k0A0; sequences stand for … in GGGAAUGGAUCCACAUCUACGAAUUC…UUCACUGCAGACUUGACGAAGCUG
Procedure, shortened: as §1

| Sequence | self-aminoacylation (biotinyl-Val-oxazolone) | self-aminoacylation (biotinyl-Met-oxazolone) | self-aminoacylation (biotinyl-Ile-oxazolone) | self-aminoacylation (biotinyl-Trp-oxazolone) | self-aminoacylation (biotinyl-Leu-oxazolone) | self-aminoacylation (biotinyl-Phe-oxazolone) |
| --- | --- | --- | --- | --- | --- | --- |
| CAACUUCAGACAAUCGGUCUG [Fam1A.1 aminoacylation ribozyme variant] | 1.09 | 0.989 | 1.09 | 1.43 | 1.08 | 2.46 |
| AUUCACCUAGGUCAUCCGGUU [Fam2.2 aminoacylation ribozyme variant] | 1.88 | 1.82 | 1.63 | 1.39 | 1.97 | 9.74 |
| AAGUUUGCUGAUAGUGGCAAG [Fam3.1 aminoacylation ribozyme variant] | 0.891 | 0.897 | 0.708 | 0.629 | 0.993 | 0.477 |
| CUACAUCAUACAAUCGGUCUG [Fam1A.1 aminoacylation ribozyme variant] | 0.863 | 0.631 | 0.752 | 0.708 | 0.499 | 0.643 |
| CUACUUCAAACAAUCGGGCUG [Fam1A.1 aminoacylation ribozyme variant] | 1.14 | 0.998 | 1.17 | 9.43 | 1.32 | 13.2 |
| AAGUUUGCGAAUAGGCGCAAG [Fam3.1 aminoacylation ribozyme variant] | 1.11 | 1.07 | 1.15 | 1.27 | 1.1 | 9.76 |
| CUACUCCAAACAAUCGGUAUG [Fam1A.1 aminoacylation ribozyme variant] | 0.715 | 0.698 | 0.632 | 0.497 | 0.875 | 1.57 |
| UCACACCUCAAGCAAUCGGUC [Fam1B.1 aminoacylation ribozyme variant] | 1.12 | 0.863 | 1 | 1.55 | 1.01 | 1.58 |
| CUACGUCAAACAACCGGUCUG [Fam1A.1 aminoacylation ribozyme variant] | 1.41 | 1.45 | 1.31 | 1.56 | 1.71 | 1.46 |
| CCACACUGCACGCAAUCGGUC [Fam1B.1 aminoacylation ribozyme variant] | 1.65 | 1.65 | 1.62 | 1.28 | 1.42 | 1.5 |
| AAGUUUGCUAAUCCUCGCAAG [Fam3.1 aminoacylation ribozyme variant] | 0.733 | 0.628 | 0.706 | 0.599 | 0.725 | 0.881 |
| CCACACUUCAAGCAAUCUGUA [Fam1B.1 aminoacylation ribozyme variant] | 0.622 | 0.434 | 0.504 | 0.232 | 0.426 | 0.833 |
| AAGUUUGCUAUGAGUCGCAAG [Fam3.1 aminoacylation ribozyme variant] | 0.974 | 0.644 | 0.692 | 0.54 | 0.778 | 0.664 |
| AUACUUCAAACUAUCGGUCUG [Fam1A.1 aminoacylation ribozyme variant] | 0.964 | 0.873 | 1.02 | 0.924 | 0.93 | 1.01 |
| AGUCACCUAGGUCAGCGGGUG [Fam2.2 aminoacylation ribozyme variant] | 3.77 | 4.31 | 4.2 | 5.59 | 5.54 | 39.5 |
| AAGUUUGCUAAUAGUUGCAAA [Fam3.1 aminoacylation ribozyme variant] | 1.37 | 1.35 | 1.44 | 1.65 | 1.17 | 1.69 |
| AUUCGCCUAGGUCAUCGCGUG [Fam2.2 aminoacylation ribozyme variant] | 10.9 | 19.2 | 10 | 17.6 | 23.4 | 126 |
| CUACUUCGAACUAUCGGUCUG [Fam1A.1 aminoacylation ribozyme variant] | 0.842 | 0.778 | 0.8 | 0.459 | 0.776 | 0.964 |
| AAGUUUGCUAAUACUCGAAAG [Fam3.1 aminoacylation ribozyme variant] | 0.609 | 0.593 | 0.655 | 0.737 | 0.679 | 0.913 |
| AUUACCCCGGUCAUCAAGUGA [Fam2.1 aminoacylation ribozyme variant] | 1.04 | 1.3 | 1.16 | 1.52 | 1.45 | 1.75 |
| CUACUUCAAACAACCGGUCUG [Fam1A.1 aminoacylation ribozyme variant] | 0.845 | 0.729 | 0.874 | 0.844 | 0.791 | 1.07 |
| CAACUUCAAACUAUCGGUCUG [Fam1A.1 aminoacylation ribozyme variant] | 1.22 | 1.08 | 1.53 | 1.44 | 1.51 | 1.71 |
| AAGUUUGCUCAUAGUCGAAAG [Fam3.1 aminoacylation ribozyme variant] | 1.16 | 1.19 | 0.912 | 1.46 | 1.13 | 1.96 |
| CUACUCCAAACAUUCGGUCUG [Fam1A.1 aminoacylation ribozyme variant] | 1.46 | 1.26 | 1.25 | 0.949 | 1.6 | 1.06 |
| CCACACUUCAAGCAGACGGUC [Fam1B.1 aminoacylation ribozyme variant] | 0.57 | 0.607 | 0.686 | 0.539 | 0.605 | 0.719 |
| CCACACUUCAAGUAAUCGGUA [Fam1B.1 aminoacylation ribozyme variant] | 0.929 | 1.09 | 1.01 | 0.708 | 1.17 | 0.884 |

| Sequence | self-aminoacylation (biotinyl-Val-oxazolone) | self-aminoacylation (biotinyl-Met-oxazolone) | self-aminoacylation (biotinyl-Ile-oxazolone) | self-aminoacylation (biotinyl-Trp-oxazolone) | self-aminoacylation (biotinyl-Leu-oxazolone) | self-aminoacylation (biotinyl-Phe-oxazolone) |
| --- | --- | --- | --- | --- | --- | --- |
| AUUACCCUGGUUGUCGAGUGA [Fam2.1 aminoacylation ribozyme variant] | 1.33 | 1.91 | 1.38 | 3.23 | 1.85 | 1.97 |
| AUUCUGCUAGGUCAUCGGGUG [Fam2.2 aminoacylation ribozyme variant] | 6.13 | 9.46 | 5.96 | 9.84 | 12 | 72.1 |
| AAGCUUGCUAAUAGUCGCAUG [Fam3.1 aminoacylation ribozyme variant] | 1.55 | 1.74 | 1.8 | 1.87 | 2.07 | 3.98 |
| AAGUUUGCAAAUAGUCCCAAG [Fam3.1 aminoacylation ribozyme variant] | 0.876 | 0.774 | 1.07 | 0.867 | 0.816 | 0.855 |
| CCACACAUCGAGCAAUCGGUC [Fam1B.1 aminoacylation ribozyme variant] | 1.67 | 0.972 | 1.24 | 1.07 | 1.38 | 1.08 |
| CUACUUCAAACAAUGGGUAUG [Fam1A.1 aminoacylation ribozyme variant] | 0.723 | 0.721 | 0.75 | 0.518 | 0.654 | 0.516 |
| CCACACUUCAAGAAGUCGGUC [Fam1B.1 aminoacylation ribozyme variant] | 0.996 | 1.14 | 0.903 | 0.924 | 1.01 | 0.878 |
| CUACGUCAAACCAUCGGUCUG [Fam1A.1 aminoacylation ribozyme variant] | 1.41 | 1.1 | 1.36 | 0.872 | 1.1 | 0.967 |
| AUUACCCUGAUCAUCCAGUGA [Fam2.1 aminoacylation ribozyme variant] | 3.49 | 5.79 | 2.91 | 7.09 | 5.22 | 16.9 |
| AUUCACCUAAGUCAUCGUGUG [Fam2.2 aminoacylation ribozyme variant] | 1.09 | 0.927 | 0.828 | 0.751 | 1.19 | 0.491 |
| CUACUUCAAACUAUAGGUCUG [Fam1A.1 aminoacylation ribozyme variant] | 0.745 | 0.604 | 0.727 | 0.592 | 0.601 | 0.939 |
| AUUAACCUGGUCAUCGAGUGA [Fam2.1 aminoacylation ribozyme variant] | 4.02 | 7.3 | 3.97 | 8.57 | 7.64 | 8.46 |
| UCACACUUCAAGCAAUCUGUC [Fam1B.1 aminoacylation ribozyme variant] | 0.494 | 0.447 | 0.398 | 0.375 | 0.374 | 0.825 |
| AUUUACCUAGGUCAGCGGGUG [Fam2.2 aminoacylation ribozyme variant] | 3.16 | 4.01 | 2.49 | 3.98 | 4.23 | 24.5 |
| CUACUUCAAAGAAUCGAUCUG [Fam1A.1 aminoacylation ribozyme variant] | 0.595 | 0.454 | 0.679 | 0.506 | 0.615 | 0.544 |
| CUACUUCAAACCAUCCGUCUG [Fam1A.1 aminoacylation ribozyme variant] | 1.14 | 0.891 | 0.891 | 0.802 | 0.721 | 0.573 |
| CCACCCUUCAAGCAACCGGUC [Fam1B.1 aminoacylation ribozyme variant] | 1.65 | 0.788 | 1.11 | 1.86 | 1.34 | 0.914 |
| CUACACCAAACAAUCGGUCUG [Fam1A.1 aminoacylation ribozyme variant] | 0.919 | 0.716 | 0.927 | 0.724 | 0.87 | 1.48 |
| AAGGUUGCUAAUAGUCGCAAA [Fam3.1 aminoacylation ribozyme variant] | 1.42 | 1.28 | 1.86 | 1.4 | 1.63 | 1.51 |
| AAGUUUGCUCAUAGUCGGAAG [Fam3.1 aminoacylation ribozyme variant] | 0.75 | 0.755 | 0.755 | 1.12 | 0.893 | 1.78 |
| CCACACUUCAAGCAAACGGUG [Fam1B.1 aminoacylation ribozyme variant] | 3.33 | 3.91 | 3.12 | 4.31 | 5.1 | 10.7 |
| AAGUUUGCUGAUAGUCGCACG [Fam3.1 aminoacylation ribozyme variant] | 1.39 | 1.09 | 1.25 | 1.78 | 1.41 | 1.05 |
| UAGUUUGCUAAUAGACGCAAG [Fam3.1 aminoacylation ribozyme variant] | 0.943 | 0.704 | 0.937 | 0.544 | 0.478 | 1.09 |
| AUUACCCUGGUUAUCGAGUGC [Fam2.1 aminoacylation ribozyme variant] | 1.08 | 0.882 | 0.828 | 1.12 | 1.02 | 1.1 |
| AAGUUUGCUAAUAGUCUCAAA [Fam3.1 aminoacylation ribozyme variant] | 1.09 | 1.03 | 1.13 | 0.983 | 1.08 | 1.77 |
